# Results published in the supplement of paper PMC12067093, “Discovery and optimisation of a covalent ligand for TRIM25 and its application to targeted protein ubiquitination” (Chemical Science, 2025).
# Chains of the proteins cited; added tags and fusions are not shown. Lines headed by an entry give the natural chain unless they say otherwise; changes in a name come on top.
# UniProt Q6ZUJ8: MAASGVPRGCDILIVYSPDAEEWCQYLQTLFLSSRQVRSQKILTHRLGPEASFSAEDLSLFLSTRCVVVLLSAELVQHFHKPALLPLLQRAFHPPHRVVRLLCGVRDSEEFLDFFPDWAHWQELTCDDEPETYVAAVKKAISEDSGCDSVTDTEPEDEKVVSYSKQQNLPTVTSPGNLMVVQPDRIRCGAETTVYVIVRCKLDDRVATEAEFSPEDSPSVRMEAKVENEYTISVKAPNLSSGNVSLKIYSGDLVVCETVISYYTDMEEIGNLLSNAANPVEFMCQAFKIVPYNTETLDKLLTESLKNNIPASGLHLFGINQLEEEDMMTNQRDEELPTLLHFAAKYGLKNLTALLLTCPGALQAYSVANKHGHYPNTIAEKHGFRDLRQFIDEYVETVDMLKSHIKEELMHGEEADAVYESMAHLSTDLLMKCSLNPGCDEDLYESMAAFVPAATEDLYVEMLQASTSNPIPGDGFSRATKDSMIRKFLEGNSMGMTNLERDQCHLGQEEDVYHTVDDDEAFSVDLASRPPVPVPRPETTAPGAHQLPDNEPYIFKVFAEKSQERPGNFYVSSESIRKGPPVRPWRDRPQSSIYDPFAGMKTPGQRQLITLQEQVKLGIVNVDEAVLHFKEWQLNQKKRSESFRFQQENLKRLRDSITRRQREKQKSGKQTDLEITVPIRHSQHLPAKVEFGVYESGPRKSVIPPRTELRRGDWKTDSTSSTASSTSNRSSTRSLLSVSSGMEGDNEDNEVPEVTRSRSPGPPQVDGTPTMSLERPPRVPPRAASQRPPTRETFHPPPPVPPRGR
# UniProt Q9BY49: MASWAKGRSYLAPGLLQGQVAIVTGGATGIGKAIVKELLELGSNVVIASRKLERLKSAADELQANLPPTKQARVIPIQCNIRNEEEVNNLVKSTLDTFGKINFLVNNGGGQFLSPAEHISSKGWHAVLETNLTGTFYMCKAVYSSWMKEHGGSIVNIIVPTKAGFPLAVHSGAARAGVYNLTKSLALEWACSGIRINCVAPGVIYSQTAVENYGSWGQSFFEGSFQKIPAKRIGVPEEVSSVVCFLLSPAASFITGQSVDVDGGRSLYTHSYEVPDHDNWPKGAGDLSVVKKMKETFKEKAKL
# UniProt Q96G03: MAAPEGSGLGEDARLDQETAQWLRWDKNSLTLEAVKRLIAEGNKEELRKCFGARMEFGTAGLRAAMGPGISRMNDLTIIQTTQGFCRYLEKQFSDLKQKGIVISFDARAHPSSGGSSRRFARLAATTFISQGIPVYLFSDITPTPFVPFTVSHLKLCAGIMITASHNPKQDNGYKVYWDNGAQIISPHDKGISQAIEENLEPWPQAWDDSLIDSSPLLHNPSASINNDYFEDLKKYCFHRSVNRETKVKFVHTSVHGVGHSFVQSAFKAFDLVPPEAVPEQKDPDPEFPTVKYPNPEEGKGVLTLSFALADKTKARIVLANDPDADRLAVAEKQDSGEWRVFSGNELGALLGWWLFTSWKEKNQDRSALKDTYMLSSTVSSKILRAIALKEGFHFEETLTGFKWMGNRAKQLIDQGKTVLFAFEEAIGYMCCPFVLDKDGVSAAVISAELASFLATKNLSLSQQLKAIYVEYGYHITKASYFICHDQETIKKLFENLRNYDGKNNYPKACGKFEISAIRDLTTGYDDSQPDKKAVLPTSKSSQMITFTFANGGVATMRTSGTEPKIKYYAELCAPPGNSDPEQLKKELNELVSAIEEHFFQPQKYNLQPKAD
# UniProt Q8NDX5: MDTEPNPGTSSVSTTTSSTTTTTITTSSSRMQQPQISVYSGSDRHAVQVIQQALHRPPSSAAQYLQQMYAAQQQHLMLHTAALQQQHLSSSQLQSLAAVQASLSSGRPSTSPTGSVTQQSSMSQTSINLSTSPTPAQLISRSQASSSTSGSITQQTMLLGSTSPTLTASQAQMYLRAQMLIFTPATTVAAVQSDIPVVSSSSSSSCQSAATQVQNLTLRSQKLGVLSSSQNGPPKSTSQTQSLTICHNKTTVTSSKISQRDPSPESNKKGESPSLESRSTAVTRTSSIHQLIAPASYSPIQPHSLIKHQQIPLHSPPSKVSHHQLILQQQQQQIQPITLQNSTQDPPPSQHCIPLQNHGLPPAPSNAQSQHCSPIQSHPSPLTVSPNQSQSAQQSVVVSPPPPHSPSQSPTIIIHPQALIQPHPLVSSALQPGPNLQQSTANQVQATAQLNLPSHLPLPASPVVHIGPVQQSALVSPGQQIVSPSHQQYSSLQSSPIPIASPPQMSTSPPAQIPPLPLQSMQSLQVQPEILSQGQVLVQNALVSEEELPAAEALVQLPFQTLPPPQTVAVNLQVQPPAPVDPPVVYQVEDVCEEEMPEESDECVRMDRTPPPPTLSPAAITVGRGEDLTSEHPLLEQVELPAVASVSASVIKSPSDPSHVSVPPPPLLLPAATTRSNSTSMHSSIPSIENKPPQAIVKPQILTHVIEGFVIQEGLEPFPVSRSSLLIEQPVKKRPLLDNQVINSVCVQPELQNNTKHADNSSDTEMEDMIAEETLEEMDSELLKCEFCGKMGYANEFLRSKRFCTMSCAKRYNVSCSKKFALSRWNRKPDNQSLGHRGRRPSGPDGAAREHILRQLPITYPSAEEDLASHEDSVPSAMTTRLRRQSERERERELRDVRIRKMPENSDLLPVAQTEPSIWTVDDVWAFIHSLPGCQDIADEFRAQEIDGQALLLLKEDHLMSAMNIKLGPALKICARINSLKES
# UniProt Q16875: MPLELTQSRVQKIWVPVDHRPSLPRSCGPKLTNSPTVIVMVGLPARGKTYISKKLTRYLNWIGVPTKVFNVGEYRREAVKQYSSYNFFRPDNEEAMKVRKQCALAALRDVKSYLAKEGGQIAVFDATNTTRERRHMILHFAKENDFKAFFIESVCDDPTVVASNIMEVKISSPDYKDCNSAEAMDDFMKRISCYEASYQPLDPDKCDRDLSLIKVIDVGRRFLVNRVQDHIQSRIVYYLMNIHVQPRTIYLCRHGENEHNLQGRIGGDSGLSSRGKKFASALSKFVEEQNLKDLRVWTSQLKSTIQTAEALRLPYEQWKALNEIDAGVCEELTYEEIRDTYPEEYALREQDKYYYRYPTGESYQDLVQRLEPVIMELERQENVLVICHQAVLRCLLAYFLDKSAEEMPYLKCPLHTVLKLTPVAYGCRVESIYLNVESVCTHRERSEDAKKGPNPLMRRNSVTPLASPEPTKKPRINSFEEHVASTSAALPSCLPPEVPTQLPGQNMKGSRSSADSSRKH
# UniProt Q9P1Y6: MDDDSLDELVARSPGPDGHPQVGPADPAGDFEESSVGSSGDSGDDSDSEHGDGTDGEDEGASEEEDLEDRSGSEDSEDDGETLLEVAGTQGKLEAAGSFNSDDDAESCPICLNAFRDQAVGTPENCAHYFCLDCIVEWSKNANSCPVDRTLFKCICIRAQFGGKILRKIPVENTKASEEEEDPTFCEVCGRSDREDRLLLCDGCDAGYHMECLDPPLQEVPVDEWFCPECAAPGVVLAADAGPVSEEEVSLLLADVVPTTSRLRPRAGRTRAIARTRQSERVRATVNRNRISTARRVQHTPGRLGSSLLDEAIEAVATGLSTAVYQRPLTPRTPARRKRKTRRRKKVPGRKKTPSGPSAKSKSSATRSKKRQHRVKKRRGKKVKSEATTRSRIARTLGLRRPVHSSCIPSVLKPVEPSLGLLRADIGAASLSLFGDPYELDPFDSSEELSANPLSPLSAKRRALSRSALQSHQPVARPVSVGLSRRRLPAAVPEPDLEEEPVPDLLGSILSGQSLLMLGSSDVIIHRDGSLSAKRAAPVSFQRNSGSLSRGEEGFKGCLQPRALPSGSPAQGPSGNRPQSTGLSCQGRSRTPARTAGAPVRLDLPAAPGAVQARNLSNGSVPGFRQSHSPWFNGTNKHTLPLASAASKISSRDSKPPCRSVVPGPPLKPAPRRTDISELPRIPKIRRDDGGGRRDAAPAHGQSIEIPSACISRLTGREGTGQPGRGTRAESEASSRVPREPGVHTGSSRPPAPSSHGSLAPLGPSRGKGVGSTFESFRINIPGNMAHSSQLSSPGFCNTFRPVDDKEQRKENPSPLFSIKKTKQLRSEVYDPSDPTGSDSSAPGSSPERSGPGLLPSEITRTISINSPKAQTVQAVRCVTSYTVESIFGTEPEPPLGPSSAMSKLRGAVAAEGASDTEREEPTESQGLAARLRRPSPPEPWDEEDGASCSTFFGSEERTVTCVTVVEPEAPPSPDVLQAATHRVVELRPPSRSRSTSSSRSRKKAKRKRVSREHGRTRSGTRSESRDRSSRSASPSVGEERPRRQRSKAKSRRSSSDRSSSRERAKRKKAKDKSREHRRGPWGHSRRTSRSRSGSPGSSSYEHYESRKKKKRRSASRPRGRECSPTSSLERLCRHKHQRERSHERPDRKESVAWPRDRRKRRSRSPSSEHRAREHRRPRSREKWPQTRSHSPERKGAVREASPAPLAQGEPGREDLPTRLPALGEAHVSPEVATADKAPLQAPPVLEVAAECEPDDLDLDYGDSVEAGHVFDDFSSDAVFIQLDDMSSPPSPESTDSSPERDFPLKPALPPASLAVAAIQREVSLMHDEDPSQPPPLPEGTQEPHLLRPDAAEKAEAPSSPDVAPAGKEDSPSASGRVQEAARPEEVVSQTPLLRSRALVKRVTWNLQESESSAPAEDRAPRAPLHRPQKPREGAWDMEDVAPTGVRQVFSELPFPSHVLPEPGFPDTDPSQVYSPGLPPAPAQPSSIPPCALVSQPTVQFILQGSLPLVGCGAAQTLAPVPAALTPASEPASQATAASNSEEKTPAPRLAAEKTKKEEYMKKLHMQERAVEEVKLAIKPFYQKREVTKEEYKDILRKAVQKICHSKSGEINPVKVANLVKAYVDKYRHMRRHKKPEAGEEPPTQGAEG
# UniProt Q7RTV0, whole entry, looked up: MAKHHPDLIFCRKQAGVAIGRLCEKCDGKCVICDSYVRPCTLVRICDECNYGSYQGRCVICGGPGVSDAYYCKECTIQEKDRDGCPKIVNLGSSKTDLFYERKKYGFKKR
# UniProt Q92643: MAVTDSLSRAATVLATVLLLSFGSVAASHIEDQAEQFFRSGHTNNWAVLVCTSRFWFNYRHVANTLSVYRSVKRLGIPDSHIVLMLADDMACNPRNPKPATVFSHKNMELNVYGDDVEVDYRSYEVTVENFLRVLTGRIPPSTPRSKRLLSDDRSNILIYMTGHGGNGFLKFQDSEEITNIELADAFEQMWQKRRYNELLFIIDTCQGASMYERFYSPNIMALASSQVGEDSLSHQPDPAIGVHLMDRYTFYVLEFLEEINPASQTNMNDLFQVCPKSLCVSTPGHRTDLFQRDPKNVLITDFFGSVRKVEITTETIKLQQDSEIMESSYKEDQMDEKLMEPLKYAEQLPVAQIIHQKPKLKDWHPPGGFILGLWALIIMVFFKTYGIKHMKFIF
# UniProt P00558: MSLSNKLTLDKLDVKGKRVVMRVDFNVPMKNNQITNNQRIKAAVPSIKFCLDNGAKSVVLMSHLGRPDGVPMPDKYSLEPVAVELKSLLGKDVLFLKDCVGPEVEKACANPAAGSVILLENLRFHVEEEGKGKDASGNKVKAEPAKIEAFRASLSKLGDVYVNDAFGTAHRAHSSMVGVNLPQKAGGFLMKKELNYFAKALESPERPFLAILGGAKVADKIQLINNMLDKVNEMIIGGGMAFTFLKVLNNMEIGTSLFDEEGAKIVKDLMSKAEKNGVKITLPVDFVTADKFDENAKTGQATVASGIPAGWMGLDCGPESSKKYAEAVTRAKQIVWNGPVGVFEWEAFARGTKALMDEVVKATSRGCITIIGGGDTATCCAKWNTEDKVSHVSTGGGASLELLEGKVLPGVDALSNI
# UniProt Q01813: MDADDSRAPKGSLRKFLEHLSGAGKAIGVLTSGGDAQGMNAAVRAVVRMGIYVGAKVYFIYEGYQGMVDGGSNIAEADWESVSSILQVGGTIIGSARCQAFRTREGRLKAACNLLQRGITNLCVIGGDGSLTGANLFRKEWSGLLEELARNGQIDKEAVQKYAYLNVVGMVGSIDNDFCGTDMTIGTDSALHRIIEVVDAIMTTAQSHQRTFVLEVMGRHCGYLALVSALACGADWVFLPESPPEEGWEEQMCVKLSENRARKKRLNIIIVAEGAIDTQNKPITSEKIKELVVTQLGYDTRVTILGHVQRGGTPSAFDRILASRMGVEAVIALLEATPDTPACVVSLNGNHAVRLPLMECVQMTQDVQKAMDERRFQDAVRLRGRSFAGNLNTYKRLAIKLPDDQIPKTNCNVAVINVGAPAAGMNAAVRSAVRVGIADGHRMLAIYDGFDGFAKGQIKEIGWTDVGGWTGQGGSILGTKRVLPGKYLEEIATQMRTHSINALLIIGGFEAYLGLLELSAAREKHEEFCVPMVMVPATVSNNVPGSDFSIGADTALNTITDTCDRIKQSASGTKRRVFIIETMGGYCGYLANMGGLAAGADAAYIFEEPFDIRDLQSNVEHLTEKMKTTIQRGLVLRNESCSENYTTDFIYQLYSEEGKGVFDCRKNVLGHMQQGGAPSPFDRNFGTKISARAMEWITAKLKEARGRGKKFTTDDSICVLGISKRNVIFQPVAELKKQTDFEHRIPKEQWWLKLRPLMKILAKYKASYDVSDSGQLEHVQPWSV
# The other results are listed elsewhere or left out.
# Compound: Cc1cc(ccc1-c1ccccc1)C(=O)N1CCCN(CC1)C(=O)CCl [compound 10]
# Assay: probe-labelled cysteine peptide fold change vs DMSO (competition) (log2 fold change); higher = less target engagement (more negative = stronger competition)
# Conditions: 10 µM; THP-1; incubation time: 4 h
# 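Note: competitive profiling in live THP-1 cells: cysteine peptides tagged with an iodoacetamide desthiobiotin (IA-DTB) probe, intensity after compound treatment relative to DMSO-treated cells.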
row,Target,probe-labelled cysteine peptide fold change
1,PIK3AP1_Q6ZUJ8_358_NLTALLLTCPGALQAYSVANK (UniProt Q6ZUJ8),0.0198
2,PIGX_Q8TBF5_175_YHRPHSEDGEASIVVNNPDLLMFCDQEFPILK (UniProt Q8TBF5),-0.034
3,PGD_P52209_402_SAVENCQDSWRR (UniProt P52209),-0.136
4,PECR_Q9BY49_191_SLALEWACSGIR (UniProt Q9BY49),0.0903
5,PHGDH_O43175_18_VLISDSLDPCCR (UniProt O43175),-0.444
6,PGM2_Q96G03_484_ASYFICHDQETIKK (UniProt Q96G03),-0.0162
7,PIAS1_O75925_192_CDFTVQVQLR (UniProt O75925),0.0184
8,PHYKPL_Q8IUZ5_288_SIGNGHPVACVAATQPVAR (UniProt Q8IUZ5),0.0774
9,PHC3_Q8NDX5_808_FCTMSCAK (UniProt Q8NDX5),-0.142
10,PGPEP1_Q9NXJ5_99_GLDNCR (UniProt Q9NXJ5),-0.124
11,PHIP_Q8WWQ0_245_GHAAEISDMAVNYENTMIAAGSCDK (UniProt Q8WWQ0),0.0153
12,PGM3_O95394_168_LSQSVIDGVTVLGGQFHDYGLLTTPQLHYMVYCR (UniProt O95394),0.0651
13,PFKFB3_Q16875_427_LTPVAYGCR (UniProt Q16875),-0.0504
14,PECAM1_P16284_405_SNTVQIVVCEMLSQPR (UniProt P16284),0.157
15,PGAM5_Q96HS1_229_QEEDSYEIFICHANVIR (UniProt Q96HS1),0.109
16,PELP1_Q8IZL8_191_DISMNHLPGLLTSLLGLRPECEQSALEGMK (UniProt Q8IZL8),-0.134
17,PHRF1_Q9P1Y6_145_NANSCPVDR (UniProt Q9P1Y6),-0.175
18,PHF14_O94880-2_607_LCYHFGCLDPPLK (UniProt O94880),0.0735
19,PGAM1_P18669_153_YADLTEDQLPSCESLK (UniProt P18669),-0.0615
20,PGAM5_Q96HS1_168_HLPGVCK (UniProt Q96HS1),-0.066

row,Target,probe-labelled cysteine peptide fold change
1,PFKL_P17858_351_LPLMECVQMTK (UniProt P17858),0.113
2,PFAS_O15067_606_IVLVDDRECPVR (UniProt O15067),-0.134
3,PHGDH_O43175_18+19_VLISDSLDPCCR (UniProt O43175),-0.0629
4,PHF5A_Q7RTV0_46_ICDECNYGSYQGR (UniProt Q7RTV0),-0.00469
5,PGAM1_P18669_55_DAGYEFDICFTSVQKR (UniProt P18669),-0.0838
6,PHF3_Q92576_885_ESTTVTCTGEK (UniProt Q92576),-0.118
7,PIK3C3_Q8NEB9_336_CVNWDLPQEAK (UniProt Q8NEB9),0.0653
8,PECAM1_P16284_476_DNPTEDVEYQCVADNCHSHAK (UniProt P16284),-0.134
9,PHKB_Q93100_280_QTLCSLLPR (UniProt Q93100),0.0194
10,PHGDH_O43175_18_KVLISDSLDPCCR (UniProt O43175),-0.156
11,PEX6_Q13608_564_HLLLNEDPLNSCPPLMVVATTSR (UniProt Q13608),0.0661
12,PIGK_Q92643_280_SLCVSTPGHR (UniProt Q92643),0.0179
13,PEX6_Q13608_474_GPPGCGK (UniProt Q13608),0.0332
14,PHIP_Q8WWQ0_1692_KLQYAKPEDLEQNNVHPIRDEVLPSSTCNFLSETNNVK (UniProt Q8WWQ0),0.0624
15,PIK3CB_P42338_116_SCDPGEK (UniProt P42338),-0.0749
16,PGK1_P00558_316_TGQATVASGIPAGWMGLDCGPESSKK (UniProt P00558),-0.0721
17,PHGDH_O43175_111_GILVMNTPNGNSLSAAELTCGMIMCLAR (UniProt O43175),0.128
18,PFKP_Q01813_123_GITNLCVIGGDGSLTGANLFRK (UniProt Q01813),-0.0443
19,PHF20_Q9BVI0_840_SVEESYITSEHCYQK (UniProt Q9BVI0),-0.209

# Same assay, conditions: 50 µM; THP-1; incubation time: 4 h
row,Target,probe-labelled cysteine peptide fold change
1,PIK3AP1_Q6ZUJ8_358_NLTALLLTCPGALQAYSVANK (UniProt Q6ZUJ8),-0.242
2,PIGX_Q8TBF5_175_YHRPHSEDGEASIVVNNPDLLMFCDQEFPILK (UniProt Q8TBF5),0.0393
3,PGD_P52209_402_SAVENCQDSWRR (UniProt P52209),-0.26
4,PECR_Q9BY49_191_SLALEWACSGIR (UniProt Q9BY49),-0.863
5,PHGDH_O43175_18_VLISDSLDPCCR (UniProt O43175),-0.677
6,PGM2_Q96G03_484_ASYFICHDQETIKK (UniProt Q96G03),0.224
7,PIAS1_O75925_192_CDFTVQVQLR (UniProt O75925),-0.123
8,PHYKPL_Q8IUZ5_288_SIGNGHPVACVAATQPVAR (UniProt Q8IUZ5),0.167
9,PHC3_Q8NDX5_808_FCTMSCAK (UniProt Q8NDX5),-0.367
10,PGPEP1_Q9NXJ5_99_GLDNCR (UniProt Q9NXJ5),-0.8
11,PHIP_Q8WWQ0_245_GHAAEISDMAVNYENTMIAAGSCDK (UniProt Q8WWQ0),-0.0397
12,PGM3_O95394_168_LSQSVIDGVTVLGGQFHDYGLLTTPQLHYMVYCR (UniProt O95394),0.146
13,PFKFB3_Q16875_427_LTPVAYGCR (UniProt Q16875),0.0513
14,PECAM1_P16284_405_SNTVQIVVCEMLSQPR (UniProt P16284),0.0756
15,PGAM5_Q96HS1_229_QEEDSYEIFICHANVIR (UniProt Q96HS1),0.432
16,PELP1_Q8IZL8_191_DISMNHLPGLLTSLLGLRPECEQSALEGMK (UniProt Q8IZL8),0.18
17,PHRF1_Q9P1Y6_145_NANSCPVDR (UniProt Q9P1Y6),-0.162
18,PHF14_O94880-2_607_LCYHFGCLDPPLK (UniProt O94880),0.0954
19,PGAM1_P18669_153_YADLTEDQLPSCESLK (UniProt P18669),0.153
20,PGAM5_Q96HS1_168_HLPGVCK (UniProt Q96HS1),-0.231

row,Target,probe-labelled cysteine peptide fold change
1,PFKL_P17858_351_LPLMECVQMTK (UniProt P17858),-0.00912
2,PFAS_O15067_606_IVLVDDRECPVR (UniProt O15067),-0.174
3,PHGDH_O43175_18+19_VLISDSLDPCCR (UniProt O43175),-0.691
4,PHF5A_Q7RTV0_46_ICDECNYGSYQGR (UniProt Q7RTV0),-0.327
5,PGAM1_P18669_55_DAGYEFDICFTSVQKR (UniProt P18669),-0.521
6,PHF3_Q92576_885_ESTTVTCTGEK (UniProt Q92576),-0.51
7,PIK3C3_Q8NEB9_336_CVNWDLPQEAK (UniProt Q8NEB9),0.108
8,PECAM1_P16284_476_DNPTEDVEYQCVADNCHSHAK (UniProt P16284),-0.196
9,PHKB_Q93100_280_QTLCSLLPR (UniProt Q93100),0.168
10,PHGDH_O43175_18_KVLISDSLDPCCR (UniProt O43175),-0.857
11,PEX6_Q13608_564_HLLLNEDPLNSCPPLMVVATTSR (UniProt Q13608),0.052
12,PIGK_Q92643_280_SLCVSTPGHR (UniProt Q92643),0.141
13,PEX6_Q13608_474_GPPGCGK (UniProt Q13608),-0.0326
14,PHIP_Q8WWQ0_1692_KLQYAKPEDLEQNNVHPIRDEVLPSSTCNFLSETNNVK (UniProt Q8WWQ0),-0.454
15,PIK3CB_P42338_116_SCDPGEK (UniProt P42338),-0.135
16,PGK1_P00558_316_TGQATVASGIPAGWMGLDCGPESSKK (UniProt P00558),-0.16
17,PHGDH_O43175_111_GILVMNTPNGNSLSAAELTCGMIMCLAR (UniProt O43175),0.0721
18,PFKP_Q01813_123_GITNLCVIGGDGSLTGANLFRK (UniProt Q01813),-0.357
19,PHF20_Q9BVI0_840_SVEESYITSEHCYQK (UniProt Q9BVI0),-0.0845
